The results in this text go back to article PMC10026764, “Overcoming the imatinib-resistant BCR-ABL mutants with new ureidobenzothiazole chemotypes endowed with potent and broad-spectrum anticancer activity” (Journal of Enzyme Inhibition and Medicinal Chemistry, 2023).

This series has as its system DDR1. The series can be described thus: Kinase selectivity test against DDR1. The class given is biochemical. Conditions: IC50 DDR1 / IC50 BCR-ABL. The procedure: On the other hand, to gain certain insights about the kinase selectivity of this array of ureidobenzothiazoles, compounds 2a and 2b were tested against DDR1 (Figure 4). Discoidin domain receptors (DDR1/2) are transmembrane receptor tyrosine kinases (RTKs), activated by fibrillar collagens. DDR1/2 and BCR-ABL share almost 61% sequence similarities in their ATP binding domains. […] This observation points out the merit of these ureidobenzothiazoles over the known BCR-ABL inhibitors in achieving exceptional selectivity towards BCR-ABL.

With `CCN1CCN(c2ccc(NC(=O)Nc3nc4ccc(-c5ccccc5OC)cc4s3)cc2)CC1` [Compound 2b], the “selectivity for BCR-ABL over DDR1” value was 284 folds.
Regarding `COc1ccccc1-c1ccc2nc(NC(=O)Nc3ccc(N4CCN(C)CC4)cc3)sc2c1` [Compound 2a], the “selectivity for BCR-ABL over DDR1” value is recorded as 130 folds.
